Reference: PubChem BioAssay AID1259308 (NCATS, 2017)

Purpose: 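Knock-downs that increase output of a recombinant reporter protein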 (primary screen)
System: human HEK293 embryonic kidney cells stably expressing firefly luciferase (HEK-CMV-Luc2-Hygro)
Reagent: single siRNA against human genes, 0.8 pmol siRNA per well
Timing: 72 h
Detection: 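Luciferase light (ONE-Glo) measured on one replicate plate set and viability (CellTiter-Glo) on the other, scaled to a negative control siRNA, with robust z-scores and luciferase per cell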
Direction: total luciferase, z-score and total luciferase, % of control: higher = more reporter protein produced
Rule for the call: 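An siRNA counts as active if its total luciferase robust z-score exceeds 3; genes with two or more such siRNAs out of three were retested with fresh siRNAs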
Meaning of the calls: active = raised luciferase; inactive = no rise
The whole screen tested about 59,000 reagents; shown is a part drawn at random. About 1,510 of them (2.6%) were called active. 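Calls use total luciferase alone and ignore viability, so some active siRNAs may act by altering cell number.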 A number with no mark means an inactive call. Reagents against one gene are numbered here. Not all columns of the deposit are shown. Reagent sequences are not shown.

With ZNF468 (zinc finger protein 468) #1, what does the deposit list?
total luciferase, z-score: 0.668; total luciferase, % of control: 95.2

With ZNF468 (zinc finger protein 468) #2, what does the deposit list?
total luciferase, z-score: -0.132; total luciferase, % of control: 79.3

For ZNF468 (zinc finger protein 468) #3, what was measured?
total luciferase, z-score: -0.00452; total luciferase, % of control: 81.8

With RELN (reelin) #1, how do the results read?
total luciferase, z-score: 0; total luciferase, % of control: 81.9

With RELN (reelin) #2, what was measured?
total luciferase, z-score: 0.0525; total luciferase, % of control: 82.9

What did the screen give for RELN (reelin) #3?
total luciferase, z-score: -0.004; total luciferase, % of control: 81.8

What did the screen give for ABHD15 (abhydrolase domain containing 15) #1?
total luciferase, z-score: 0.901; total luciferase, % of control: 99.8

How did the screen score ABHD15 (abhydrolase domain containing 15) #2?
total luciferase, z-score: 1.13; total luciferase, % of control: 104

What is on record for ABHD15 (abhydrolase domain containing 15) #3?
total luciferase, z-score: 1.24; total luciferase, % of control: 107

Ordered by “total luciferase, % of control” (descending): some entries from above.
ABHD15 (abhydrolase domain containing 15) #3 — total luciferase, z-score = 1.24; total luciferase, % of control = 107
ABHD15 (abhydrolase domain containing 15) #2 — total luciferase, z-score = 1.13; total luciferase, % of control = 104

The results go on.
How did the screen score FDPS (farnesyl diphosphate synthase) #1?
total luciferase, z-score: -1.87; total luciferase, % of control: 44.7

What did the screen give for FDPS (farnesyl diphosphate synthase) #2?
total luciferase, z-score: -0.554; total luciferase, % of control: 70.9

What is on record for FDPS (farnesyl diphosphate synthase) #3?
total luciferase, z-score: -0.536; total luciferase, % of control: 71.2

For RPL26P11 (ribosomal protein L26 pseudogene 11) #1, how do the results read?
total luciferase, z-score: 0.0318; total luciferase, % of control: 82.5

How did the screen score RPL26P11 (ribosomal protein L26 pseudogene 11) #2?
total luciferase, z-score: -2.47; total luciferase, % of control: 32.8

Which result is listed for RPL26P11 (ribosomal protein L26 pseudogene 11) #3?
total luciferase, z-score: -0.911; total luciferase, % of control: 63.8

With HBS1L (HBS1 like translational GTPase) #1, what does the deposit list?
total luciferase, z-score: -0.358; total luciferase, % of control: 74.8

For HBS1L (HBS1 like translational GTPase) #2, what does the deposit list?
total luciferase, z-score: -0.208; total luciferase, % of control: 77.8

With HBS1L (HBS1 like translational GTPase) #3, what does the deposit list?
total luciferase, z-score: -0.257; total luciferase, % of control: 76.8

What did the screen give for PLCB3 (phospholipase C beta 3) #1?
total luciferase, z-score: 1.31; total luciferase, % of control: 108

How did the screen score PLCB3 (phospholipase C beta 3) #2?
total luciferase, z-score: 0.277; total luciferase, % of control: 87.4

How did the screen score PLCB3 (phospholipase C beta 3) #3?
total luciferase, z-score: 2.15; total luciferase, % of control: 125
